Values of other authors as cited in patent publication US20150359802A1, “PARENTERAL PHARMACEUTICAL FORM WHICH RELEASES AROMATSE INHIBITOR AND GESTAGENS, FOR THE TREATMENT OF ENDOMETRIOSIS” (Bayer Intellectual Property GmbH, priority 2010, published 2015).
Read-outs that look alike come from different tables or passages of the source. At least one structure is not confirmed: it was looked up by name or label, or the drawing left a doubt.

Tested on: ovulation
Conditions: cited from earlier work

In the case of `C#C[C@]1(O)CC[C@H]2[C@@H]3CCC4=CC(=O)CC[C@@H]4[C@H]3CC[C@@]21CC` [Levonorgestrel], the Ovulation inhibition dose (Neumann et al) is given as 50 μg/day p.o and the Ovulation inhibition dose (Taubert & Kuhl) is given as 60 μg/day p.o.
